PubChem BioAssay AID1224829 | NIAID | 2016
The whole screen tested about 3,800 reagents; below is a part drawn at random. 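Calls cover raised and lowered translocation; gene median uses one vendor's three siRNAs; qiagen siRNAs acted more weakly than ambion siRNAs.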 The numbers tell different reagents against one gene apart.

Aim: 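Genes needed for LPS-driven NF-kappaB p65 nuclear entry in mouse macrophages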 (follow-up of hits)
System: mouse RAW264.7 G9 macrophage reporter cells
Reagent: single siRNA against mouse genes, 100 nM
Duration: 2 days of siRNA knock-down, then 40 min of LPS before fixing
Conditions: LPS (Salmonella minnesota R595) at 10 ng/ml
Measurement: 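Imaging of GFP-p65 after 40 min of LPS; nuclear over perinuclear ring intensity ratio, scaled to plate median and non-targeting control wells, given as z-score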
Scale: p65 translocation z-score and gene median z-score, per vendor: higher = more nuclear NF-kappaB p65 after LPS
Hit rule: 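Active means the replicate-mean z-score lies beyond plus or minus 2, in either direction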
Meaning of the calls: active = changed p65 translocation (either direction); inactive = no clear change

no.	gene symbol	reagent	siRNA vendor or control pool	p65 translocation z-score, replicate mean	p65 translocation z-score, replicate 1	p65 translocation z-score, replicate 2	gene median z-score, per vendor	activity call
1	Ctps2	1	ambion single siRNA	-4.15	-3.74	-4.56	-3.74	active
2	Ctps2	2	ambion single siRNA	1.59	1.1	2.07	-3.74	inactive
3	Ctps2	3	ambion single siRNA	-3.83	-3.83		-3.74	active
4	Ctps2	4	qiagen single siRNA	0.974	-1.61	3.56	0.44	inactive
5	Ctps2	5	qiagen single siRNA	-0.438	-0.427	-0.45	0.44	inactive
6	Ctps2	6	qiagen single siRNA	2.12	1.31	2.93	0.44	active
7	Rufy3	1	ambion single siRNA	2.37	2.68	2.07	1.31	active
8	Rufy3	2	ambion single siRNA	1.58	2.61	0.548	1.31	inactive
9	Rufy3	3	ambion single siRNA	-0.543	-0.208	-0.878	1.31	inactive
10	Rufy3	4	qiagen single siRNA	1.56	1.15	1.97	0.423	inactive
11	Rufy3	5	qiagen single siRNA	0.564	-0.305	1.43	0.423	inactive
12	Rufy3	6	qiagen single siRNA	-2.99	-2.47	-3.51	0.423	active
13	Fev	1	ambion single siRNA	3.72	3.91	3.52	1.34	active
14	Fev	2	ambion single siRNA	0.112	1.34	-1.12	1.34	inactive
15	Fev	3	ambion single siRNA	-3.77	-3.77		1.34	active
16	Fev	4	qiagen single siRNA	1.41	1.61	1.2	-0.166	inactive
17	Fev	5	qiagen single siRNA	-0.166	-0.781	0.448	-0.166	inactive
18	Fev	6	qiagen single siRNA	-3.26	-3.57	-2.95	-0.166	active
19	Tigar	1	ambion single siRNA	-3.71	-2.82	-4.6	-4.55	active
20	Tigar	2	ambion single siRNA	-4.61	-4.51	-4.71	-4.55	active
21	Tigar	3	ambion single siRNA	-4.21	-6.34	-2.08	-4.55	active
22	Tigar	4	qiagen single siRNA	3.91	4.42	3.4	1.47	active
23	Tigar	5	qiagen single siRNA	1.47	1.47		1.47	inactive
24	Tigar	6	qiagen single siRNA	0.783	0.621	0.946	1.47	inactive
25	Zfp825	1	ambion single siRNA	-3.89	-3.89		-2.38	active
26	Zfp825	2	ambion single siRNA				-2.38	inactive
27	Zfp825	3	ambion single siRNA	-2.24	-2.1	-2.38	-2.38	active
28	Zfp825	4	qiagen single siRNA	1.63	1.08	2.18	0.678	inactive
29	Zfp825	5	qiagen single siRNA	0.544	0.409	0.678	0.678	inactive
30	Zfp825	6	qiagen single siRNA	-4.12	-4.12		0.678	active
31	LOC269472 (retired record)	1	qiagen single siRNA	1.6	1.01	2.2	1.6	inactive
32	LOC269472 (retired record)	2	qiagen single siRNA	-1.94	-1.81	-2.08	1.6	inactive
33	LOC269472 (retired record)	3	qiagen single siRNA	4.04	3.22	4.87	1.6	active
34	Or2n1d	1	ambion single siRNA	-1.53	-1.53		-4.13	inactive
35	Or2n1d	2	ambion single siRNA	-6.66	-7.93	-5.39	-4.13	active
36	Or2n1d	3	ambion single siRNA	-2.87	-2.87		-4.13	active
37	Or2n1d	4	qiagen single siRNA	-0.311	-0.288	-0.333	0.793	inactive
38	Or2n1d	5	qiagen single siRNA	2.35	1.33	3.36	0.793	active
39	Or2n1d	6	qiagen single siRNA	1.18	2.11	0.254	0.793	inactive
40	Ldhd	1	ambion single siRNA	0.208	0.428	-0.0118	-2.2	inactive
41	Ldhd	2	ambion single siRNA	-5.15	-5.27	-5.03	-2.2	active
42	Ldhd	3	ambion single siRNA	-2.2	-2.74	-1.66	-2.2	active
43	Ldhd	4	qiagen single siRNA	3.86	3.65	4.06	2.98	active
44	Ldhd	5	qiagen single siRNA	3	2.3	3.69	2.98	active
45	Ldhd	6	qiagen single siRNA	-0.485	-0.932	-0.0393	2.98	inactive
46	Hnrnph1	1	ambion single siRNA	-2.06	-2.24	-1.88	-2.06	active
47	Hnrnph1	2	ambion single siRNA	-2.33	-1.62	-3.03	-2.06	active
48	Hnrnph1	3	ambion single siRNA	-1.19	-2.47	0.089	-2.06	inactive
49	Hnrnph1	4	qiagen single siRNA	3.28	1.27	5.29	-0.14	active
50	Hnrnph1	5	qiagen single siRNA	-0.769	-0.769		-0.14	inactive
51	Hnrnph1	6	qiagen single siRNA	-0.303	-0.14	-0.466	-0.14	inactive
